This is one part of the list. Many values rest on one well or one pass, so single values are uncertain.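 Imaging used 1,536-well plates; nuclei positive for cleaved PARP by antibody were divided by total DNA-stained nuclei to yield the apoptosis fraction. Doses for screening kept most cells viable, and cell lines differ markedly in resting and induced cleaved-PARP levels.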
The molecules below were run on UACC62 (assay: cleaved PARP positive nuclei fraction relative to DMSO control; melanoma cells; higher = more apoptosis). Conditions: library dose: low library concentration; 72 h.

| Compound | cleaved PARP positive nuclei fraction [%] |
| --- | --- |
| CN(NC(=O)CC(=O)NN(C)C(=S)c1ccccc1)C(=S)c1ccccc1 + COC(=O)c1sccc1S(=O)(=O)Nc1ccc(Nc2ccccc2)cc1OC [GSK0660] (first compound 0.006 µM, partner dose 1 µM) | 35.9 |
| COc1cc2c(Oc3ccc4[nH]c(C)cc4c3F)ncnc2cc1OCCCN1CCCC1 [cediranib] + O=C(O)C(=O)Nc1sc2c(c1C(=O)O)CCNC2 [TCS401] (first compound 0.4 µM, partner dose 1.66667 µM) | 40.8 |
| COC(=O)c1sccc1S(=O)(=O)Nc1ccc(Nc2ccccc2)cc1OC + CCCCCCCCCCCC1=C(O)C(=O)C=C(O)C1=O [Embelin] (first compound 1 µM, partner dose 1.2 µM) | 92.6 |

Source: the supplement of paper PMC4604168 (melanoma cell lines)
